Measurements as given in patent US6790603B2, “Compositions for the storage of platelets” (Bioenergy, Inc., priority 1999, dated 2004).

Test system: platelet concentrates
Assay: pH and lactate of stored platelet concentrates

For O=C[C@H](O)[C@H](O)[C@H](O)CO [D-Ribose], the Lactate production (15 mM D-Ribose) was “high lactate production”, the Lactate (about 150 nM D-Ribose) was “increased” and the “pH of platelet concentrate” value (about 150 nM D-Ribose) was “remains constant”.
